Test results published in PMC7819943, “Rice protein-binding microarrays: a tool to detect cis-acting elements near promoter regions in rice”.
The list shows a part of the results.

Sequences of proteins named here, by UniProt entry; tags and fusion partners are left off.
UniProt Q0JBA9, entry or part of it: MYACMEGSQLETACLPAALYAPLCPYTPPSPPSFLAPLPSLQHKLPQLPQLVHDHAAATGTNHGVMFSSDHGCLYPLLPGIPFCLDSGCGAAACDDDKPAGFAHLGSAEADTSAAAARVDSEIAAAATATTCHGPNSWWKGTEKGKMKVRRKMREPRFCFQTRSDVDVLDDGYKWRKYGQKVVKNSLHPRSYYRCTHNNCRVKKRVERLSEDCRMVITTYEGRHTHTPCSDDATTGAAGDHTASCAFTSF

What follows are sequences tested against OsWRKY34 (Oryza sativa, UniProt Q0JBA9 1-250) (assay: protein-binding microarray (RPBM); PBS, 2% BSA, 51.3 ng/ul salmon testes DNA, 50 uM zinc acetate, 200 nM TF, 25 C, 1 h; high values mean tight binding). Details: protein: recombinant; tags: N-terminal polyhistidine and DsRed monomer fusion (pET32a); label: CyDye5-dUTP incorporated in the synthesized complementary strand; 3' TTTTT single-stranded linker to array surface; dsDNA, one strand shown.
How it was run: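 In PBS with 2% BSA, salmon testes DNA and 50 µM zinc acetate, 200 nM protein was incubated on a custom Agilent array at 25 °C for 1 h and then washed off. The array had been made double-stranded by primer extension with Cy5-dUTP and blocked with 2% BSA. The proteins were transcription factors fused N-terminally to polyhistidine and DsRed, expressed in E. coli BL21-CodonPlus and purified on Ni–NTA. The binding signal is per-feature fluorescence intensity (arbitrary units) from an Axon 4000B scanner.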

Row | Sequence | binding signal
1 | AAACTTTTCTACACACATAAACTCCTAACTTTTTTTTTCCCGGAGTCACCTAGTGCAG | 8670 fluorescence intensity (a.u.)
2 | CCGAGATTTCTTACTCTGAGGCTTTTACCGTTTCATGTCACGGAGTCACCTAGTGCAG | 8360 fluorescence intensity (a.u.)
3 | TGTATTGTCATCGTGTAATAGTGCGTGTTTCTTCTAGTTCCGGAGTCACCTAGTGCAG | 10500 fluorescence intensity (a.u.)
4 | CTTACATCTAGTACCGGACGATTTTTATTTATGGGCAATTCGGAGTCACCTAGTGCAG | 8200 fluorescence intensity (a.u.)
5 | ACATATTTCAATGTGTATCTTCACTGTGTTTCATAATTTTCGGAGTCACCTAGTGCAG | 8950 fluorescence intensity (a.u.)
6 | TCGCCACTGCAGATCTTCTCTTTTAACTCCGTCGAATTCACGGAGTCACCTAGTGCAG | 8850 fluorescence intensity (a.u.)
7 | CCAACGCCTGATTCGCTTCTCCATCTGCTTGCATTCAACCCGGAGTCACCTAGTGCAG | 8490 fluorescence intensity (a.u.)
8 | ACCACTGCATAAATTCTCAACATATGCTTGTGTTTTTTTTCGGAGTCACCTAGTGCAG | 8600 fluorescence intensity (a.u.)
9 | CCCGGCGGTTCGCCCGCCCATCCGTCTGATCGGCATCGAACGGAGTCACCTAGTGCAG | 8760 fluorescence intensity (a.u.)
10 | TGCAAAACCTTGTTTGTGAATTGTCACTGCCTGTACGGGGCGGAGTCACCTAGTGCAG | 9020 fluorescence intensity (a.u.)
11 | CGTGGGGTTTTCTTGTTTCGGAGGTAGGGAGAGGTTTCGTCGGAGTCACCTAGTGCAG | 11900 fluorescence intensity (a.u.)
12 | TTCTATTACGTATCATCTATTTTGCACAACCCTTTAAAGTCGGAGTCACCTAGTGCAG | 8690 fluorescence intensity (a.u.)
13 | CCCTCTCGCGAGAACAACAGGGTACAACCTTACATTACTGCGGAGTCACCTAGTGCAG | 8350 fluorescence intensity (a.u.)
14 | TCCCTCTCGCCGGTCGCCGCCCTCGTCCCCGCCGCCGCCGCGGAGTCACCTAGTGCAG | 14200 fluorescence intensity (a.u.)
15 | CATCCCCGCGAGTCTCATGTATACATTTCACATATCAAACCGGAGTCACCTAGTGCAG | 9810 fluorescence intensity (a.u.)
16 | GATCTTTTTTCCTCCGATGGCCTCCGTGCAGCTGACCAGCCGGAGTCACCTAGTGCAG | 9000 fluorescence intensity (a.u.)
17 | GCAAGATGAATACAGGGTTCGGTTCCATTATGGTCATCCTCGGAGTCACCTAGTGCAG | 8480 fluorescence intensity (a.u.)
18 | GGCAAGGCGGCGGGTCTCCCGTTCTTGGATGGTCGTTGTTCGGAGTCACCTAGTGCAG | 8400 fluorescence intensity (a.u.)
19 | CCACCGCACTACTCCCGATCGGTCTCACGGATTTACCCGGCGGAGTCACCTAGTGCAG | 9440 fluorescence intensity (a.u.)
20 | ATATACTTTCCCTGTATCTGTGTATCATATTATGTGACTACGGAGTCACCTAGTGCAG | 10900 fluorescence intensity (a.u.)
21 | TTCTTGTCATTTTGTTGGGCTCCCTGTTCATCAAGATTATCGGAGTCACCTAGTGCAG | 8140 fluorescence intensity (a.u.)

Some of the entries so far, comma-delimited.
Row,Sequence,binding signal
12,TTCTATTACGTATCATCTATTTTGCACAACCCTTTAAAGTCGGAGTCACCTAGTGCAG,8690 fluorescence intensity (a.u.)
13,CCCTCTCGCGAGAACAACAGGGTACAACCTTACATTACTGCGGAGTCACCTAGTGCAG,8350 fluorescence intensity (a.u.)

(further entries)

Row | Sequence | binding signal
22 | CATCACATCTCATACTTCGGTCGGTTCTGGGCAGGCTGAACGGAGTCACCTAGTGCAG | 8280 fluorescence intensity (a.u.)
23 | TCTCGTCTACTACTAGTACTAGCTTCTTCTCCTCCATTTCCGGAGTCACCTAGTGCAG | 10800 fluorescence intensity (a.u.)
24 | TGCAGCCCATGTTTTATCTGTTTTTTAGTGTGTTGGCCCACGGAGTCACCTAGTGCAG | 8580 fluorescence intensity (a.u.)
25 | CACTCTCTCTCGATCTCGTGCTCTCCTCCTTTCGCGAGCGCGGAGTCACCTAGTGCAG | 11000 fluorescence intensity (a.u.)
26 | CTGATACCTTGGTTGCTTTGTGGTTTTCCAAATATTCTTGCGGAGTCACCTAGTGCAG | 10500 fluorescence intensity (a.u.)
27 | TCTCCTGCCGCTGCTCGCCTCTCTCTCCGTGCGGAGGAGTCGGAGTCACCTAGTGCAG | 8600 fluorescence intensity (a.u.)
28 | TCACACCAGCGAGACAGACCACCGCGCCACGTCCGTCGCCCGGAGTCACCTAGTGCAG | 8180 fluorescence intensity (a.u.)
29 | CAGCCCAGTACACCTCTCCCTGGTACACCCCTCGACGGAACGGAGTCACCTAGTGCAG | 9440 fluorescence intensity (a.u.)
30 | GCTGTTTTTCTTCATGTAGTTACCCTTCTAGAAAAGCAATCGGAGTCACCTAGTGCAG | 8340 fluorescence intensity (a.u.)
31 | CTGTTCTTTCTTTCACTGTCGGATGTGATGACTGTTTGTCCGGAGTCACCTAGTGCAG | 13000 fluorescence intensity (a.u.)
32 | CTCAGTATCCTGCTCGTCCTAGTCTGCTTTCTCCATCTGACGGAGTCACCTAGTGCAG | 14400 fluorescence intensity (a.u.)
33 | GCTGCATCTCTCCCTCTCTCTCGCGTTCCATCGCCACGCCCGGAGTCACCTAGTGCAG | 11000 fluorescence intensity (a.u.)
34 | AACCTCTCCATTTCAACCTGTTCACGATCCTGCTTAACCACGGAGTCACCTAGTGCAG | 10900 fluorescence intensity (a.u.)
35 | TTTTTCTCGGTAATTTTGTGATTGGTCTACTCCTACAAAACGGAGTCACCTAGTGCAG | 8290 fluorescence intensity (a.u.)
36 | CTAGCTAGCAATCGAGCTCAGTTTTCCTAATTAATTGCTACGGAGTCACCTAGTGCAG | 8300 fluorescence intensity (a.u.)
37 | CCCTATTCCTCTCTCTCTTCTCTTTTCTCTCTGTCGCTCTCGGAGTCACCTAGTGCAG | 8790 fluorescence intensity (a.u.)
38 | CCATCCAGTTTTCCATGTTTCCCAGCTCAAGGTTGCACATCGGAGTCACCTAGTGCAG | 9410 fluorescence intensity (a.u.)
39 | GTTCCGTTTCGCAGTCGTCGTCGTCGTCTCCGATGATGATCGGAGTCACCTAGTGCAG | 9310 fluorescence intensity (a.u.)
40 | TTTTTCTTTCATCCCTTTTTGATCTACAAAGTTATACAGTCGGAGTCACCTAGTGCAG | 8500 fluorescence intensity (a.u.)
41 | TAAGAAGCTATGCACTCTTTCTATTTTCTTTTACATTATACGGAGTCACCTAGTGCAG | 8450 fluorescence intensity (a.u.)
42 | AACCAGCACGCGATGGGGAGGGGCGAGCAGGAGGCGGCGGCGGAGTCACCTAGTGCAG | 12400 fluorescence intensity (a.u.)
